Results on one molecule are retold here after patent publication US20140199314A1.

The chains behind the UniProt entries cited, without tags or fusion partners. Where a name states a change or a piece, a line headed by the entry shows the natural chain unless it says otherwise.
UniProt P22004: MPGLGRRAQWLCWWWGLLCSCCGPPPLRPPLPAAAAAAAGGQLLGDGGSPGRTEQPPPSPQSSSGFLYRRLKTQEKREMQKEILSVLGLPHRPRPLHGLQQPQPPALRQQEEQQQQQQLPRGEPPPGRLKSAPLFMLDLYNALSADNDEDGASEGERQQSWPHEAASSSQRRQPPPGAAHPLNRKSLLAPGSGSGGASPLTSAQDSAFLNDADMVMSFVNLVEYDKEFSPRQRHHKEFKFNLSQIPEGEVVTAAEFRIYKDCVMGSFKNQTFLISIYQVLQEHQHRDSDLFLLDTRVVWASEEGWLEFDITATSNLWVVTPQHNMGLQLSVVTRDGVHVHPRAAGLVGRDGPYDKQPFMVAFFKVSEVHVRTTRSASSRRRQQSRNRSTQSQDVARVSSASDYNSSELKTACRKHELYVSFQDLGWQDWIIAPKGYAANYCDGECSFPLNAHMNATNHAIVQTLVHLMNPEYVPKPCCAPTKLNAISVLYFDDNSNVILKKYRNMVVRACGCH

Results are given in words; binding and its absence hold for the method and conditions named. Binding seen in cells or lysates may run through a third protein. Some results given as binding are weak or reduced against the parent protein; the word gives no strength. Tags and fused reporters may be left off the sequences shown.

This assay deals with human BMP-6 (human) (UniProt P22004). Nature of the assay: co-precipitation with hBMP6 and mAb507 on Protein A beads, Western blot.

B1: hHJV.His (soluble human hemojuvelin protein, His tagged) (receptor, UniProt Q6ZVN8 36-400, looked up, not shown: small tags and cut ends)
chain: QCKILRCNAEYVSSTLSLRGGGSSGALRGGGGGGRGGGVGSGGLCRALRSYALCTRRTARTCRGDLAFHSAVHGIEDLMIQHNCSRQGPTAPPPPRGPALPGAGSGLPAPDPCDYEGRFSRLHGRPPGFLHCASFGDPHVRSFHHHFHTCRVQGAWPLLDNDFLFVQATSSPMALGANATATRKLTIIFKNMQECIDQKVYQAEVDNLPVAFEDGSINGGDRPGGSSLSIQTANPGNHVEIQAAYIGTTIIIRQTAGQLSFSIKVAEDVAMAFSAEQDLQLCVGGCPPSQRLSRSERNRRGAITIDTARRLCKEGLPVEDAYFHSCVFDVLISGDPNFTVAAQAALEDARAFLPDLEKLHLFPSD
For the molecule B1, the binding result is reported as “binds”.
